PubChem BioAssay AID1224828 | NIAID – 2016

Assay: 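Knock-downs that increase or decrease LPS-induced p65 nuclear translocation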 (primary screen)
System: mouse RAW264.7 G9 macrophage reporter cells (GFP-p65, Tnf promoter-mCherry)
Knock-down reagent: siRNA pool against mouse genes, 100 nM
Timing: 2 days siRNA transfection, then 40 min LPS before fixation
Challenge: LPS (Salmonella minnesota R595) at 10 ng/ml
Measurement: 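Imaged p65 nuclear translocation ratio, normalised to the plate median, converted to robust z-scores and averaged across two replicates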
Scale: p65 translocation robust z-score: higher = more nuclear NF-kappaB p65 after LPS than the plate median; nuclear/cytoplasmic p65 ratio: higher = more nuclear NF-kappaB p65
Hit rule: 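Active if robust z is above 3.3 (negative regulators) or below -1.56, the Tlr4 control median (positive regulators); activity score 50 or more; control wells not called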
Meaning of the calls: active = hit (p65 shift raised or lowered); inactive = no clear change
The whole screen tested about 17,000 reagents; below is a part drawn at random. 762 of them (4.5%) were called active. 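Active calls include both raised and lowered p65 entry, mostly lowered; wells with fewer than 50 cells lack a z-score.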 Raw values are not corrected between plates. Unmarked entries are inactive.

Cstf2 [SID315476675]: p65 translocation robust z-score = -0.23; nuclear/cytoplasmic p65 ratio, rep 1 = 1.56; nuclear/cytoplasmic p65 ratio, rep 2 = 1.73; low cell count flag = enough cells to score
Vmn2r-ps11 [SID315481052]: p65 translocation robust z-score = 0.06; nuclear/cytoplasmic p65 ratio, rep 1 = 1.36; nuclear/cytoplasmic p65 ratio, rep 2 = 1.22; low cell count flag = enough cells to score
Grin2d [SID315467037]: p65 translocation robust z-score = -0.85; nuclear/cytoplasmic p65 ratio, rep 1 = 1.24; nuclear/cytoplasmic p65 ratio, rep 2 = 1.34; low cell count flag = enough cells to score
4933436E20Rik (retired record) [SID315474199]: p65 translocation robust z-score = 1.09; nuclear/cytoplasmic p65 ratio, rep 1 = 1.35; nuclear/cytoplasmic p65 ratio, rep 2 = 1.61; low cell count flag = enough cells to score
Memo1 [SID315475400]: p65 translocation robust z-score = -1.41; nuclear/cytoplasmic p65 ratio, rep 1 = 1.31; nuclear/cytoplasmic p65 ratio, rep 2 = 1.29; low cell count flag = enough cells to score
Cxcl11 [SID315471359]: p65 translocation robust z-score = -0.47; nuclear/cytoplasmic p65 ratio, rep 1 = 1.46; nuclear/cytoplasmic p65 ratio, rep 2 = 1.27; low cell count flag = enough cells to score
Tcf3 [SID315469623]: p65 translocation robust z-score = 0.23; nuclear/cytoplasmic p65 ratio, rep 1 = 1.58; nuclear/cytoplasmic p65 ratio, rep 2 = 1.52; low cell count flag = enough cells to score
Nmt1 [SID315468195]: p65 translocation robust z-score = 0.91; nuclear/cytoplasmic p65 ratio, rep 1 = 1.95; nuclear/cytoplasmic p65 ratio, rep 2 = 1.58; low cell count flag = enough cells to score
Dennd2b [SID315475420]: p65 translocation robust z-score = 0.26; nuclear/cytoplasmic p65 ratio, rep 1 = 1.52; nuclear/cytoplasmic p65 ratio, rep 2 = 1.66; low cell count flag = enough cells to score
Hycc1 [SID315475901]: p65 translocation robust z-score = 1.84; nuclear/cytoplasmic p65 ratio, rep 1 = 1.87; nuclear/cytoplasmic p65 ratio, rep 2 = 1.45; low cell count flag = enough cells to score
Nfe2l1 [SID315468146]: p65 translocation robust z-score = -0.56; nuclear/cytoplasmic p65 ratio, rep 1 = 1.3; nuclear/cytoplasmic p65 ratio, rep 2 = 1.34; low cell count flag = enough cells to score
Hemk1 [SID315473821]: nuclear/cytoplasmic p65 ratio, rep 1 = 1.14; nuclear/cytoplasmic p65 ratio, rep 2 = 1.39; low cell count flag = fewer than 50 cells per well; well left out of scoring

Part of the list above, limited to “nuclear/cytoplasmic p65 ratio, rep 2”:
Grin2d [SID315467037]: 1.34
4933436E20Rik (retired record) [SID315474199]: 1.61
